Test results taken from PubChem BioAssay AID2551 (National Center for Advancing Translational Sciences (NCATS), 2010).
Out of some 310,000 compounds screened, about 17,000 (5.5%) were called active. The shares of active, inactive and inconclusive entries below differ from those in the screen. Calls come from the whole dose curve; as a rule, active = well fitted inhibition curve with a large enough effect; inconclusive = small, poorly fitted or top-dose-only effect, or effect the other way; inactive = no such curve, though single readings can be large or run the other way. A potency beside an inconclusive call is a rough fit, not a confirmed value.
% is set by controls: 0 for no effect and ±100 for the full control effect; potency is the fitted concentration of half-maximal effect.
Note: nearly all actives have a fitted effect of over 60% in size.

Protein sequences, listed by entry. Tags and fused reporters are not part of them. Lines headed by an entry give the natural chain unless they say otherwise; changes in a name come on top.
UniProt P51450: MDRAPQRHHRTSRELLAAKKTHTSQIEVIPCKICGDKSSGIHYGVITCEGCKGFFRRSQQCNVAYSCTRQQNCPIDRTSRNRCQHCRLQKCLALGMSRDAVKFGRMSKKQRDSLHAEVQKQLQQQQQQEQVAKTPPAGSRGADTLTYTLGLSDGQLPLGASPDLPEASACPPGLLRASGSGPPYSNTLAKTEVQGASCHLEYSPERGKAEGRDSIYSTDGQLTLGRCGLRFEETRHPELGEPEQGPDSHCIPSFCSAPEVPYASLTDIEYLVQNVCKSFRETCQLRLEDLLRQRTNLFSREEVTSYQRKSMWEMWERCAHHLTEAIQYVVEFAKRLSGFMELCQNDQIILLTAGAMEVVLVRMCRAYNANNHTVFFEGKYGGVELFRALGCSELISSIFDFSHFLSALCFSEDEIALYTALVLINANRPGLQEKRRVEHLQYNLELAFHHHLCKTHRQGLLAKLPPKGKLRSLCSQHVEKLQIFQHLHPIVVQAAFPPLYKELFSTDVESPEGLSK

The compounds below were run against Nuclear receptor ROR-gamma (Mus musculus) (UniProt P51450) (assay: qHTS for inhibitors of ROR gamma transcriptional activity). Conditions: Drosophila S2 Gal4-RORgamma UAS-luciferase reporter, 20 h; activity change, negative = inhibition: at 53.6 µM (top of the series).
Summary of the method: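 Read-out: Photinus luciferase luminescence; inhibitors lower reporter signal. Insect Schneider cells with Gal4-ROR gamma fusion under metallothionein promoter, UAS reporter; 700 uM final copper sulfate induction, 20 hr, ambient temperature.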
`CCc1ccc(NC(=S)NCc2cccnc2)cc1` was tested, and the “activity change, negative = inhibition” value was inactive: -9.11%. In the case of `COc1cc(S(=O)(=O)Nc2cccnc2)ccc1Cl`, the Potency was inconclusive: 6.31 µM [inhibitor, single point]. For `COc1cc(/C=C/C(=O)OCC(=O)Nc2ccc(S(N)(=O)=O)cc2)ccc1O`, the “activity change, negative = inhibition” value was inactive: 3.28%. `O=C(CCc1ccccc1)Nc1cccc(-c2nnc(-c3ccco3)o2)c1` was tested, and the Potency was inconclusive: 12.6 µM [inhibitor, partial curve, poor fit]. In the case of `c1ccc(NCc2nc3ccccc3n2CCOc2ccccc2)cc1`, the Potency was active: 12.6 µM. For `Cc1ccc(CNC(=O)c2oc3ccc(S(=O)(=O)N4CCC5(CC4)OCCO5)cc3c2C)cc1`, the “activity change, negative = inhibition” value was inactive: 36.5%. In the case of `COCCNc1nc(N2CCCCC2)c2cnn(C)c2n1`, the “activity change, negative = inhibition” value was inactive: -12.6%. With `COc1ccc(F)cc1C(=O)C1CCCN(C(=O)C2=C(C)OCCO2)C1` (stereo unspecified) the Potency was inconclusive: 20 µM [activator, single point]. In the case of `COc1ccc(C(=O)NCCn2ccc3ccccc32)c(OC)c1`, the Potency was active: 10 µM. For `Cc1ccc(NC(=O)Nc2nnc(Cc3ccc([N+](=O)[O-])cc3)s2)cc1C`, the Potency was inconclusive: 7.94 µM [activator, partial curve]. For `COc1ccccc1NC(=O)Nc1ccc(Cl)c(S(=O)(=O)Nc2ccccc2OC)c1`, the Potency was inconclusive: 11.2 µM [activator, single point]. For `C=CCn1c(=N)n(CC(=O)c2ccc(Br)cc2)c2ccccc21`, the Potency was inconclusive: 15.8 µM [inhibitor, single point]. For `COC(=O)C1=C(C)N(Cc2ccc(OC)cc2)C(=O)/C1=C\c1ccco1`, the Potency was inconclusive: 31.6 µM [activator, single point]. With `CCOC(=O)c1oc2ccccc2c1CSc1nnnn1-c1ccccc1` the “activity change, negative = inhibition” value was inactive: -12.9%. `CCc1cc2c(N3CCCCC3)ncnc2s1` was tested, and the Potency was inconclusive: 35.5 µM [inhibitor, single point]. `COc1ccc(CN(C(=O)c2cc(=O)c3ccccc3o2)C2CCS(=O)(=O)C2)cc1` (stereo unspecified) was tested, and the “activity change, negative = inhibition” value was inactive: 5.61%. `Nc1nc(SCc2nc(-c3ccccc3)no2)[nH]c(=O)c1-c1ccccc1` was tested, and the “activity change, negative = inhibition” value was inactive: 37.5%. `O=C(CCCN1C(=O)/C(=C/c2ccccc2Cl)SC1=S)NNC(=O)c1ccc(Cl)cc1` was tested, and the Potency was inconclusive: 0.355 µM [inhibitor, full curve]. For `CCCCC[C@H]1CN(CCCC)C(=O)[C@@H]1CC(=O)NCc1ccc(OC)cc1`, the “activity change, negative = inhibition” value was inactive: 39.1%. With `CSc1ccc2c(c1)N(CCC1CCCCN1C)c1ccccc1S2` (stereo unspecified) the Potency was inconclusive: 12.6 µM [activator, partial curve]. In the case of `COc1ccc(-n2nc(C#N)c(Cl)cc2=O)cc1`, the Potency was active: 10 µM. `COc1ccc(OCc2cc(C(=O)NC(C)Cc3cnccn3)no2)c(Cl)c1` (stereo unspecified) was tested, and the “activity change, negative = inhibition” value was inactive: 33.6%. For `O=C(O)c1cccc2c(/C=N/Nc3ccccn3)c[nH]c12`, the Potency was inconclusive: 14.1 µM [inhibitor, single point]. `COc1ccc(-c2nc(CN3CCC(C(=O)N4CCOCC4)CC3)c(C)o2)c(OC)c1` was tested, and the “activity change, negative = inhibition” value was inactive: -0.562%. With `Oc1ccc(N=Nc2ccc(Br)cc2)c(O)c1` the Potency was inconclusive: 35.5 µM [inhibitor, single point]. In the case of `Clc1cc(Cl)c(OCCCCn2cncn2)c(Cl)c1`, the “activity change, negative = inhibition” value was inactive: 2.61%. `CCOc1ccc(-n2c(-c3ccccc3)c[n+]3c2CCC3)cc1` was tested, and the Potency was inconclusive: 35.5 µM [inhibitor, single point]. In the case of `CC(C)(C)NC(=O)CN(Cc1ccc2c(c1)OCO2)C(=O)CCC(=O)Nc1nccs1`, the Potency was inconclusive: 15.8 µM [inhibitor, single point]. For `CCC(CC)C(=O)Oc1c(Sc2ccccc2[N+](=O)[O-])c(C)nn1C(C)(C)C`, the Potency was inconclusive: 5.62 µM [activator, single point]. For `COc1ccc(C(=O)COC(=O)c2ccccc2NS(=O)(=O)c2ccc(O)c([N+](=O)[O-])c2)cc1`, the “activity change, negative = inhibition” value was inactive: 38.8%. `O=C1N/C(=N\N=C\c2cccs2)SC1Cc1ccc(Cl)c(Cl)c1` (stereo unspecified) was tested, and the Potency was active: 0.447 µM. With `CCC(C)(C)n1nnnc1CN(Cc1cccs1)Cc1cc2cc(OC)ccc2[nH]c1=O` the Potency was inconclusive: 11.2 µM [activator, partial curve]. With `Cc1cccc(-c2noc(CN(C(=O)/C=C/c3ccccc3Cl)C(C)C)n2)c1` the Potency was inconclusive: 17.8 µM [activator, single point]. In the case of `Cc1ccccc1C(=O)Nc1ccc(Br)c(C)n1`, the Potency was inconclusive: 12.6 µM [activator, partial curve]. `Cc1ccc(C(=O)N/C(=C/C=C\c2ccccc2)C(=O)NCc2ccco2)cc1` was tested, and the Potency was inconclusive: 11.2 µM [activator, partial curve]. In the case of `CC(=O)Nc1ccc(NC(=O)COc2ccc(-c3ccccc3)cc2)cc1`, the “activity change, negative = inhibition” value was inactive: -2.09%.
